{
  "sequences": {"note": "By UniProt entry, the sequences of proteins in these tests, tags left out.", "UniProt Q9WTQ5": "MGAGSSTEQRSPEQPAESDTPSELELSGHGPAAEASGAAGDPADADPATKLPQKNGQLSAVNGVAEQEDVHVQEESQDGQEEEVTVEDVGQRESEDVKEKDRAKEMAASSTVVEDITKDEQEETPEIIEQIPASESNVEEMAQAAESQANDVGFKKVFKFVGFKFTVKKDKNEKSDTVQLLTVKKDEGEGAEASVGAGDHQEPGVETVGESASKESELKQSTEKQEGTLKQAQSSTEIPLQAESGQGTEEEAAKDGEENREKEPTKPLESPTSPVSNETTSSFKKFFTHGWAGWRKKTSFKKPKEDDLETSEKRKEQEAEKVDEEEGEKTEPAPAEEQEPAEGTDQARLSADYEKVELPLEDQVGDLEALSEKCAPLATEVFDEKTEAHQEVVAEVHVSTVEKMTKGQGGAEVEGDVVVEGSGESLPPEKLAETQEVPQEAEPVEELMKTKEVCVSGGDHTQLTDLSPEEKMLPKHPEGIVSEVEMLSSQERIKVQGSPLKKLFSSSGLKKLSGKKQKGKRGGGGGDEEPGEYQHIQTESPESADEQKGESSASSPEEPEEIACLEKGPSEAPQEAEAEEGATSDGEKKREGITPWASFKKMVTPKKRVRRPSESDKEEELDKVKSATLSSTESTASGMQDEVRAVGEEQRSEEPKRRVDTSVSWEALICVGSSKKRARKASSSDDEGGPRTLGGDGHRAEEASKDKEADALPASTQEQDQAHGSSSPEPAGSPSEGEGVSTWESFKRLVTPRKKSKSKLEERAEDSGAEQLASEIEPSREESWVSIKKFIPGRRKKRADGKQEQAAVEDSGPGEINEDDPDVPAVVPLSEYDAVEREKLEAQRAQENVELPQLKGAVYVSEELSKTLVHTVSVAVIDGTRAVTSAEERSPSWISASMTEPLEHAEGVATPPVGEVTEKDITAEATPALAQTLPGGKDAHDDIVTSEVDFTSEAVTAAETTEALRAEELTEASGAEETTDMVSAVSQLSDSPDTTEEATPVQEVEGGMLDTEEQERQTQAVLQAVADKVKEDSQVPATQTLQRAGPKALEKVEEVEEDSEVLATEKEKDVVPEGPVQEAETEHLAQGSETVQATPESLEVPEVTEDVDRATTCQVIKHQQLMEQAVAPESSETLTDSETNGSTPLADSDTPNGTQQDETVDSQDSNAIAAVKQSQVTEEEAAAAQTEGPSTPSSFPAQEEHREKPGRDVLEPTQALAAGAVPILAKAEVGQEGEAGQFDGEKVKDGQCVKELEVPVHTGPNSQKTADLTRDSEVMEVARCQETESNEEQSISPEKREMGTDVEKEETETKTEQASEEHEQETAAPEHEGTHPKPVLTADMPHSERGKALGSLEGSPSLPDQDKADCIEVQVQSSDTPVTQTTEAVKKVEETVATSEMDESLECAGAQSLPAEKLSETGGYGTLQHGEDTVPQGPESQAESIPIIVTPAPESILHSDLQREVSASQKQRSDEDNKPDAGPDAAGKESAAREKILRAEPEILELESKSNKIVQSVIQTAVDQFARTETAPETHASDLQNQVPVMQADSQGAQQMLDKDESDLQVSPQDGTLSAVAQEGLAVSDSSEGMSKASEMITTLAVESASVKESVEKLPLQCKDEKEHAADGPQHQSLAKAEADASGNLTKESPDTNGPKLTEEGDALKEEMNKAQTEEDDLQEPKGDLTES", "UniProt P18762": "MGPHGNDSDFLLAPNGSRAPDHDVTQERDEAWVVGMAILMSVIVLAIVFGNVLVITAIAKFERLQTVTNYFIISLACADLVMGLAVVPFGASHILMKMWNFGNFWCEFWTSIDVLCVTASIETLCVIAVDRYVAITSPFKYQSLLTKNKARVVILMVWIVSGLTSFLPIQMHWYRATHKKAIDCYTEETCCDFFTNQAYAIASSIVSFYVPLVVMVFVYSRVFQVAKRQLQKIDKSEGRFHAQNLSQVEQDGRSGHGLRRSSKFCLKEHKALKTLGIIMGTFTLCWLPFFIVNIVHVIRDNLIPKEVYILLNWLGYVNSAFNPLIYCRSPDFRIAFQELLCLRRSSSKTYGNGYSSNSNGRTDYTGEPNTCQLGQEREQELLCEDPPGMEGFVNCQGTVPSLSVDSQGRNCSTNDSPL", "UniProt Q9DBC7": "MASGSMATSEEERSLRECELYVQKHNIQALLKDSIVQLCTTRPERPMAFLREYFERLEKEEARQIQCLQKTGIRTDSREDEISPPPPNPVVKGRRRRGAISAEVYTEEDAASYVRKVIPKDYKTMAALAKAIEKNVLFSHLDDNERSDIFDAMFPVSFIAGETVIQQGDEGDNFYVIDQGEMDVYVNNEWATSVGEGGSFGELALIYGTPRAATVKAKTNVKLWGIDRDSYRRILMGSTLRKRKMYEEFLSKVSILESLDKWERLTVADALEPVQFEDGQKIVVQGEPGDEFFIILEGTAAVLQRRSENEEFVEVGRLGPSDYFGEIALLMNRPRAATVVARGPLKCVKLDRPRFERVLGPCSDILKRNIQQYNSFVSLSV", "UniProt P12367": "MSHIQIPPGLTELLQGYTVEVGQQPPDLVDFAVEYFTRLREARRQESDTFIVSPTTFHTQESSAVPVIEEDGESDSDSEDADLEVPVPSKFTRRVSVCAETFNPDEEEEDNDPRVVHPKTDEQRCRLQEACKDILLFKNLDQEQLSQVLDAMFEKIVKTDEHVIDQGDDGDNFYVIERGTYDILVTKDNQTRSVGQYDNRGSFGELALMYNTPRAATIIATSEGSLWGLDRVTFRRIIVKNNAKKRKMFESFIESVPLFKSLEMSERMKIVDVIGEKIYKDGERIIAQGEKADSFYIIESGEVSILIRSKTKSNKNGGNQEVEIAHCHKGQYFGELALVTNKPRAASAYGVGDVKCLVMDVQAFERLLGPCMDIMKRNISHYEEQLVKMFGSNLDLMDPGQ"},
  "source": "paper PMC11979000",
  "molecular_target": "A-kinase anchoring protein 12 (AKAP12), mouse (mouse (endogenous in mouse hepatocytes and liver)) (UniProt Q9WTQ5)",
  "test": "affinity purification with mass spectrometry; AKAP12 antibody crosslinked to protein A/G beads; immunoprecipitation from hepatocytes isolated from pair-fed (control) or alcohol-fed mouse liver; nano LC-MS/MS label-free quantification",
  "note": "Results are given in words; binding and its absence hold for the method and conditions named. Binding seen in cells or lysates may run through a third protein. These calls come from enrichment with a bait or labelling near it, and not all partners need be listed.",
  "data": [
    {"molecule": "Beta-2 adrenergic receptor, mouse (from UniProt P18762 1-418)", "values": [
      {"measurement": "binding", "result": "binds"}
    ]},
    {"molecule": "Dual specificity mitogen-activated protein kinase kinase 2, mouse (from UniProt Q63932 1-401) (enzyme)", "values": [
      {"measurement": "binding", "result": "binds"}
    ]},
    {"molecule": "Protein kinase type I-alpha regulatory subunit, mouse (from UniProt Q9DBC7 1-381)", "values": [
      {"measurement": "binding", "result": "binds"}
    ]},
    {"molecule": "Protein kinase type II-alpha (PKA regulatory subunit RII-alpha), mouse (from UniProt P12367 1-401)", "values": [
      {"measurement": "binding", "result": "binds"}
    ]},
    {"molecule": "Patatin-like phospholipase domain-containing protein 2, mouse (enzyme, UniProt Q8BJ56 1-486) MFPRETKWNISFAGCGFLGVYHIGVASCLREHAPFLVANATHIYGASAGALTATALVTGACLGEAGANIIEVSKEARKRFLGPLHPSFNLVKTIRGCLLKTLPADCHERANGRLGISLTRVSDGENVIISHFSSKDELIQANVCSTFIPVYCGLIPPTLQGVRYVDGGISDNLPLYELKNTITVSPFSGESDICPQDSSTNIHELRVTNTSIQFNLRNLYRLSKALFPPEPMVLREMCKQGYRDGLRFLRRNGLLNQPNPLLALPPVVPQEEDAEEAAVVEERAGEEDQLQPYRKDRILEHLPARLNEALLEACVEPKDLMTTLSNMLPVRLATAMMVPYTLPLESAVSFTIRLLEWLPDVPEDIRWMKEQTGSICQYLVMRAKRKLGDHLPSRLSEQVELRRAQSLPSVPLSCATYSEALPNWVRNNLSLGDALAKWEECQRQLLLGLFCTNVAFPPDALRMRAPASPTAADPATPQDPPGLPPC", "values": [
      {"measurement": "binding", "result": "binds"}
    ]}
  ]
}
